# Experimental data: the supplement of paper PMC3334620
# Over roughly 33,000 sequences, “E-score (-0.5 to 0.5)” has its median near -0.015; the highest 2% begin near 0.3. Some of the results follow.
# Target: T1, Abf1 (UniProt P14164)
# T1 sequence: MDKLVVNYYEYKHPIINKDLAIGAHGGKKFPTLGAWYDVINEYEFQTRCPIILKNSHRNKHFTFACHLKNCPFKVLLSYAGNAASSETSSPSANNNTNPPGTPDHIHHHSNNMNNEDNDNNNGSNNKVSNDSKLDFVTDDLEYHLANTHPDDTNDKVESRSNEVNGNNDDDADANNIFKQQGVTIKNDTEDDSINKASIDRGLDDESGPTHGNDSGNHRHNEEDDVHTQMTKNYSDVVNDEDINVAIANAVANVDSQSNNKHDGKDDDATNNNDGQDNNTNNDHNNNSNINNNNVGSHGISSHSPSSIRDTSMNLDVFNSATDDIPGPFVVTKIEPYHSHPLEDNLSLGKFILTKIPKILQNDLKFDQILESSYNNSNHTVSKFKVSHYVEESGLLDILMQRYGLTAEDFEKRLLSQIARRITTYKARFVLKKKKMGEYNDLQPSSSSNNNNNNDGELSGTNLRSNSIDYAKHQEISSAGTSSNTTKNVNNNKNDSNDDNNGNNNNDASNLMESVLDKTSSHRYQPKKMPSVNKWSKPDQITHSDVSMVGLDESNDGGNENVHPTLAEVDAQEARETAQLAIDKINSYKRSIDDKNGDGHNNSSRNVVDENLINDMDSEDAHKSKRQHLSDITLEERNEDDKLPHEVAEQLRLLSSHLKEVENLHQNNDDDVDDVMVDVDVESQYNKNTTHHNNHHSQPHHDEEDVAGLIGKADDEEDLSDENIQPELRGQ
# Assay: PBM E-score (8-mer binding enrichment) (E-score (-0.5 to 0.5)); higher = stronger / more preferred TF binding
# Conditions: protein concentration: 200 nM; construct: GST-full length
# How it was run: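 PURExpress in vitro transcription/translation supplied GST-tagged yeast transcription factors, either full-length or DNA-binding domain. Applied at about 100-200 nM to universal all-10-mer Agilent arrays double-stranded by primer extension, the bound protein was detected with fluorescent anti-GST. E-scores, modified Wilcoxon-Mann-Whitney statistics, were given by the Universal PBM Analysis Suite to ungapped eight-base words pooled with their reverse complements after masliner normalisation.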
row,Sequence,PBM E-score
1,ACGAATAG,0.0375
2,CCAGTAGG,-0.0764
3,TATTACCA,-0.0039
4,CAGTACCC,-0.0706
5,ACCCACTG,-0.119
6,GGCGTTCA,0.0017
7,ACCTAAAA,-0.169
8,ACTCTTAT,0.112
9,TATACAGA,0.0923
10,CGCATACA,-0.0105
11,GCGGTAGA,-0.139
12,GACCGTTA,0.19
13,CATCGCAC,0.15
14,TCAGGACA,0.156
15,CGCGTCTC,0.047
16,GCATGAAC,-0.0757
17,GCGGAATA,-0.105
18,CGGCGTTC,-0.0709
19,CCTGGTAA,-0.0473
20,ATTGATAA,0.27
21,CCTAGTAG,-0.114
22,CCCGACGA,0.196
23,CACCATGC,-0.175
24,GAGTTTTA,0.0253
25,AGCACAAA,0.0191

row,Sequence,PBM E-score
1,ACCATCGT,0.0143
2,CAGATGGG,-0.114
3,CAAGACGG,0.0238
4,ACCGAATA,-0.0212
5,GTCCCGGA,-0.0327
6,GCACGCAC,0.0219
7,AACGGGAG,-0.00676
8,TCACGCGA,0.205
9,CCCCTTAA,-0.237
10,TCTCGGCA,-0.204
11,ACACATAA,0.0214
12,CCTCGAGA,-0.0603
13,ACCTCACT,0.173
14,ACACGTAG,0.0977
15,TAGACGGA,0.122
16,AAGCTGCT,-0.165
17,GAGCTTTA,0.111
18,GCGGGACC,-0.214
19,CGTAGCAA,0.265
20,CGGTAGGC,-0.0138
21,GTGGCTTA,-0.154
22,CGCAGTCC,-0.202
23,GAGGCTTA,-0.159
24,CTTCCAAC,-0.16
25,TTTTAAAA,0.0597

# Quoted from the entries so far for reference:
row,Sequence,PBM E-score
7,ACCTAAAA,-0.169
8,ACTCTTAT,0.112
9,TATACAGA,0.0923
10,CGCATACA,-0.0105
11,GCGGTAGA,-0.139
12,GACCGTTA,0.19
13,CATCGCAC,0.15
14,TCAGGACA,0.156
15,CGCGTCTC,0.047
16,GCATGAAC,-0.0757
17,GCGGAATA,-0.105
18,CGGCGTTC,-0.0709
19,CCTGGTAA,-0.0473
20,ATTGATAA,0.27
21,CCTAGTAG,-0.114
22,CCCGACGA,0.196
23,CACCATGC,-0.175
24,GAGTTTTA,0.0253
25,AGCACAAA,0.0191
1,ACCATCGT,0.0143
2,CAGATGGG,-0.114
3,CAAGACGG,0.0238
4,ACCGAATA,-0.0212
5,GTCCCGGA,-0.0327
6,GCACGCAC,0.0219
7,AACGGGAG,-0.00676
8,TCACGCGA,0.205
9,CCCCTTAA,-0.237
10,TCTCGGCA,-0.204
11,ACACATAA,0.0214
12,CCTCGAGA,-0.0603
13,ACCTCACT,0.173
14,ACACGTAG,0.0977
15,TAGACGGA,0.122
16,AAGCTGCT,-0.165
17,GAGCTTTA,0.111
18,GCGGGACC,-0.214
19,CGTAGCAA,0.265
20,CGGTAGGC,-0.0138
21,GTGGCTTA,-0.154
22,CGCAGTCC,-0.202
23,GAGGCTTA,-0.159
24,CTTCCAAC,-0.16

# Later entries

row,Sequence,PBM E-score
1,AGTGTACA,0.0412
2,AGGGGAGA,-0.2
3,AGGAGAGA,-0.0544
4,GAGACTCC,0.00659
5,CGCTGTCC,0.108
6,CAAAAGTG,-0.12
7,CGAAAGTC,-0.0339
8,AAAGAGTG,-0.101
9,CACTGCGC,-0.134
10,AGTAAAAG,0.0975
11,GTCCACTA,-0.101
12,GTCAAGTA,-0.221
13,ATTGCGAA,-0.152
14,AGTCGGTA,-0.0267
15,AACCCAGG,-0.216
16,GGTGGTAA,0.0494
17,ACTCTACC,-0.0571
18,TGGAAGAA,-0.0974
19,ATCATGCC,0.177
20,ACCATGTG,-0.0211
21,TCCCATCA,-0.102
22,AAAGCGTC,-0.0654
23,ATAATTAG,0.0579
24,TATGGTAA,0.0129
25,GGCATGTA,-0.0593

row,Sequence,PBM E-score
1,GCGTGGAA,-0.105
2,GTACAAAC,0.135
3,AACGAGTC,0.0142
4,AGCATTGG,-0.299
5,AGCCTCGC,-0.199
6,CATAACCA,0.105
7,ATTAGTGA,0.365
8,GTGAGTCA,0.0794
9,CATCCACC,-0.0205
10,GTAAGAAA,0.176
11,CCAGACCG,-0.0908
12,AAAGTACT,-0.0068
13,CCCACAGC,-0.163
14,AGCCCGGC,-0.214
15,GCTCTACC,-0.218
16,AAAAAGAA,0.049
17,AGTATCCC,-0.204
18,AACATTGT,-0.0553
19,TCTCTGAA,-0.138
20,AATGAAAT,0.166
21,AACTCGGT,0.019
22,AATTACGG,0.111
23,ATAGAATC,-0.00784
24,ACATGATG,0.119
25,GTTTTTAA,0.238

row,Sequence,PBM E-score
1,ACCGTCGG,0.157
2,ATCGCCGG,-0.0123
3,GCTCCACC,-0.139
4,ACCCCTCG,-0.17
5,AGCTCAAC,-0.0887
6,AGTGACTG,0.175
7,AACCCATA,0.0578
8,AGTGCTGC,-0.0615
9,CAGTTATC,0.0477
10,AAACTCTA,-0.144
11,CAGGTTAA,-0.0709
12,CTATGAGA,0.0357
13,AAAATCTA,0.191
14,ATGATGGC,-0.086
15,AGCTACAA,-0.101
16,ACGAGAGA,0.107
17,GATGCTAC,0.16
18,CCCGTGCC,0.0054
19,AAAATAGA,-0.0017
20,ATTCAGTC,0.0493
21,AAATCACA,0.0176
22,AGCGGCCA,-0.282
23,CGATCCCC,-0.144
24,CAGATAAG,0.0645
25,GGTATTCA,0.151

row,Sequence,PBM E-score
1,AGCACTCC,-0.0214
2,CACCTGTC,-0.0762
3,ACAGGGCA,-0.0566
4,GTCTTATA,0.107
5,CCCGCTGC,-0.1
6,CGCGCTGC,-0.165
7,GCGCTGCA,-0.0823
8,GTCCCGCA,-0.082
9,CTGGAACA,0.0661
10,GACTCACA,0.0366
11,CTGAACAG,-0.101
12,AGTCACTC,0.232
13,AGTTGATA,0.188
14,CTCGATCA,-0.00993
15,ACGCGAAA,-0.0249
16,AGCTAAAC,-0.208
17,CGTCCTCC,0.0156
18,CGTTATGA,0.0508
19,AAAACTGT,0.0603
20,AAACTTAC,0.0825
21,ATCTAGTC,0.0446
22,GACGCTAA,-0.0862
23,GCACTGCA,-0.00608
24,ATGGGATC,-0.0255
25,CCCCACCA,-0.17

row,Sequence,PBM E-score
1,AGAGTCGA,-0.127
2,CTGACGAA,0.239
3,ACGGTCCC,0.181
4,AGCAAACC,-0.00608
5,GCCGGCTA,-0.138
6,CGGTCACG,0.164
7,ATATCCCC,-0.0828
8,GGGTCACC,-0.0595
9,AGCGGGAG,-0.192
10,CAGATCGC,0.0919
11,AGCAGCTC,-0.112
12,ATGGGTCC,-0.0928
13,AGGGCTAC,-0.279
14,GCACGCTA,-0.0704
15,CTTGGTCA,-0.0485
16,GCGGAAGA,0.0169
17,CGCTCATC,0.13
18,ACAGCTAA,-0.159
19,ATTAGGTG,0.0471
20,ACCTGGTA,-0.0202
21,GAACAAGC,-0.139
22,ATCATTAG,0.279
